Reference: the supplement of paper PMC7666118
The list shows a part of the results.

Amino acid sequences for entries named in this document (tags omitted). A change or cut given only in a name is not applied to a line headed by its entry.
UniProt Q8TCT7: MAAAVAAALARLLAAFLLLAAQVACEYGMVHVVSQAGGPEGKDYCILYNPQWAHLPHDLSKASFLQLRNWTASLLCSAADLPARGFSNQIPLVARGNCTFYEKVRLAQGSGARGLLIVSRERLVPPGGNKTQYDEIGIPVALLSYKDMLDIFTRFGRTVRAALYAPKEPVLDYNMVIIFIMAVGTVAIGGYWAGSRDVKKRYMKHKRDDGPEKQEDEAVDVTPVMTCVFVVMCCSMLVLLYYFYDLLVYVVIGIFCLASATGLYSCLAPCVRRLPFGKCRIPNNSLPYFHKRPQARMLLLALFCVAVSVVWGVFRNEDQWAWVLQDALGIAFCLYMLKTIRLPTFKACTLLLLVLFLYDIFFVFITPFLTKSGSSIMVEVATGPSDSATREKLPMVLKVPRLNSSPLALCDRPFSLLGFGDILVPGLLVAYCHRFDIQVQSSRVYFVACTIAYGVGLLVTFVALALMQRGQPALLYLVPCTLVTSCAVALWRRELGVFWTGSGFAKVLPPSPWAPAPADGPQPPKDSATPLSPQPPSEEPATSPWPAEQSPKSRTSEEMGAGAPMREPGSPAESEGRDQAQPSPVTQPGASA
UniProt Q8NBJ7: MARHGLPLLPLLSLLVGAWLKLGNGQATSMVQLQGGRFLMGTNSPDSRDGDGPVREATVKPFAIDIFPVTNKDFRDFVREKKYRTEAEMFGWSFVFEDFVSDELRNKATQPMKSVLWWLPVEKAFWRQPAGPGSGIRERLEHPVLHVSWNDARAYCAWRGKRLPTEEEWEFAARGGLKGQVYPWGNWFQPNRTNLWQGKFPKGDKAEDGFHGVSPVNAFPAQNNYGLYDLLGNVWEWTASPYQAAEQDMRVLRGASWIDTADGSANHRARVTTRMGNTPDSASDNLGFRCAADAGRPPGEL
UniProt Q15814: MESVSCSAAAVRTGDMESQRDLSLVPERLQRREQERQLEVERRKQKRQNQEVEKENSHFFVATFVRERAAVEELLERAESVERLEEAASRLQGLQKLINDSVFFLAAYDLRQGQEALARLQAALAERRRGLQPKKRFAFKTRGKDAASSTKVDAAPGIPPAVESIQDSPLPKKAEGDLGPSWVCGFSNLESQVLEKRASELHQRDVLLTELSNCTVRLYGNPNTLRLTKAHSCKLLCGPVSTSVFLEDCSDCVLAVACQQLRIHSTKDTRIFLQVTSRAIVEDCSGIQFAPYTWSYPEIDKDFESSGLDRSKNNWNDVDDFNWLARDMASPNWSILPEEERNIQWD
UniProt O75347: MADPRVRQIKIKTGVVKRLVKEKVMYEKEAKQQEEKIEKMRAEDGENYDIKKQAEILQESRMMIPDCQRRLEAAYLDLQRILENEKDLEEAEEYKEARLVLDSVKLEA
UniProt Q15831: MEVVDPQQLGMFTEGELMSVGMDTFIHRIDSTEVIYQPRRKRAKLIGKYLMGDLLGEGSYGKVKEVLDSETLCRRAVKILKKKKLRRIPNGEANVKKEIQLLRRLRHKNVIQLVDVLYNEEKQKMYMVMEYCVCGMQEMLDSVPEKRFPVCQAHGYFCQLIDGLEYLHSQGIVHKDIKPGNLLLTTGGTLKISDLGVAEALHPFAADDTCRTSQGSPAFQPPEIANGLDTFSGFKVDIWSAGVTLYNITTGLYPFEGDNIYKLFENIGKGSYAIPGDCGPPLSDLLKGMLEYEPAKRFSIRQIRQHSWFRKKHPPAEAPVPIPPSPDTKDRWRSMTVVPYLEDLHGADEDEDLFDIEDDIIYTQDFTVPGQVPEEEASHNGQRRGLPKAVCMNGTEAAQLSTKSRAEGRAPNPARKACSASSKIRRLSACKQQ
UniProt P43308: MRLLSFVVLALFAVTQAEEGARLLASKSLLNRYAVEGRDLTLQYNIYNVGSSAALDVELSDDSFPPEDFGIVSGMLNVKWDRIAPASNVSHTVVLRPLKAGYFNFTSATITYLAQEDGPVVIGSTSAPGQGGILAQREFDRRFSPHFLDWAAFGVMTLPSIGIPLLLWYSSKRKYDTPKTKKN
UniProt Q93075: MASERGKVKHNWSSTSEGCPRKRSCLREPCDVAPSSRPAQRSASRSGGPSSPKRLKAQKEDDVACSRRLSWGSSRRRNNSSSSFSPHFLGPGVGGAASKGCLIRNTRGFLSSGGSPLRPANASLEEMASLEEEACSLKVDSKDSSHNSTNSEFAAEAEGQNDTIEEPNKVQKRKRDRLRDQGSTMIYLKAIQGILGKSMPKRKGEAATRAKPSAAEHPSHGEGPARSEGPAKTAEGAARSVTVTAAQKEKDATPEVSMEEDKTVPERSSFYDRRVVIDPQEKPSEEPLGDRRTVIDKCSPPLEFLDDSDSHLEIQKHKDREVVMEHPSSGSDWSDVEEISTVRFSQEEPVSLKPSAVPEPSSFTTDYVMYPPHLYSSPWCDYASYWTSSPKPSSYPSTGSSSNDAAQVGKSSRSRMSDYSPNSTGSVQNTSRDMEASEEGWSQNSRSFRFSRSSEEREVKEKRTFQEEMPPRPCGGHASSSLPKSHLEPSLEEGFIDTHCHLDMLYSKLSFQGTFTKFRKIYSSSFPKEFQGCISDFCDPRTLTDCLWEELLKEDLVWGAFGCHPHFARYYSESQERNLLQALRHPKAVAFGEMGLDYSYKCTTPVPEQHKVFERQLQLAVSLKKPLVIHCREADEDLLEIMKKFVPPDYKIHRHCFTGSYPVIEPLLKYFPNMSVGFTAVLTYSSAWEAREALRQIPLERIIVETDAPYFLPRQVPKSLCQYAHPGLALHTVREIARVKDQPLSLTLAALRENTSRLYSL
UniProt O60232: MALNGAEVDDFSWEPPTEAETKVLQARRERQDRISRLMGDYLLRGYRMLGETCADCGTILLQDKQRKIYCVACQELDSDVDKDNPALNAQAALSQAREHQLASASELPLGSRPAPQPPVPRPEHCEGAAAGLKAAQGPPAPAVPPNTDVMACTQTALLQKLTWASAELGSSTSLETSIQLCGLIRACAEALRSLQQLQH
UniProt O95455: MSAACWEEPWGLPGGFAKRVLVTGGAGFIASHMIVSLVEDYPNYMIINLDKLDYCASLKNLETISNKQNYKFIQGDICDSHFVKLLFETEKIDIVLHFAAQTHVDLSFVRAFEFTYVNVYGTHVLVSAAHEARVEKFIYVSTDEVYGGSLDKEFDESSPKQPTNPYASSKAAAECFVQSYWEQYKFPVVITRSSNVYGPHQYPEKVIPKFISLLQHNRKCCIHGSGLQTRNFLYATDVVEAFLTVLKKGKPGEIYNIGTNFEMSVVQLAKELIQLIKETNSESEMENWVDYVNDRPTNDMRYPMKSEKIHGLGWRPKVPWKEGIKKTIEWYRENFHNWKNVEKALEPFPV
UniProt Q7L7X3: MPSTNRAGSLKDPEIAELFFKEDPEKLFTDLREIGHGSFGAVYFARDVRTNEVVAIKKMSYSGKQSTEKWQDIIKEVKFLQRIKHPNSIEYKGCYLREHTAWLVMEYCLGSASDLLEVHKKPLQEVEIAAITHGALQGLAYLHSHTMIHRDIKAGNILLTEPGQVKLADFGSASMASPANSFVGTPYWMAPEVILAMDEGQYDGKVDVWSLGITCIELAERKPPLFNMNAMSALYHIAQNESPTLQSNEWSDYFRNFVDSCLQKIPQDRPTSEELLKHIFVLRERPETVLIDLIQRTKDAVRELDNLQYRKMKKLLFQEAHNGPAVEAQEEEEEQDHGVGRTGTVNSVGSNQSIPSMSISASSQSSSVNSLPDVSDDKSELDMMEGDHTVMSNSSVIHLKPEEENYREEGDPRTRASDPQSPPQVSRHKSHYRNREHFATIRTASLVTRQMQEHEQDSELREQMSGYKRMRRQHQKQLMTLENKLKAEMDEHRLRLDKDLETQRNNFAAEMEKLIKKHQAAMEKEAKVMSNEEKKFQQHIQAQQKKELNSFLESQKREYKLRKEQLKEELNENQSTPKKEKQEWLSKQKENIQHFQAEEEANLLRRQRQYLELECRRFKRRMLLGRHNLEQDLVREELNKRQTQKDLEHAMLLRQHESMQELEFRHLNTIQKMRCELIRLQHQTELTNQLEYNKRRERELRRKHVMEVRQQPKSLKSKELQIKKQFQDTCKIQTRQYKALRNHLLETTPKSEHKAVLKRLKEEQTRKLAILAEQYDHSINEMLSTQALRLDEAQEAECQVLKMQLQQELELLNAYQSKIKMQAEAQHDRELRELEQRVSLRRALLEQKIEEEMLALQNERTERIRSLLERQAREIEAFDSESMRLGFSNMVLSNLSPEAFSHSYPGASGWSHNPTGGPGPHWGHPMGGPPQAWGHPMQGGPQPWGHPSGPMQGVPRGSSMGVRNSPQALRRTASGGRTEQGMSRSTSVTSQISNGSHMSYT
UniProt Q15833: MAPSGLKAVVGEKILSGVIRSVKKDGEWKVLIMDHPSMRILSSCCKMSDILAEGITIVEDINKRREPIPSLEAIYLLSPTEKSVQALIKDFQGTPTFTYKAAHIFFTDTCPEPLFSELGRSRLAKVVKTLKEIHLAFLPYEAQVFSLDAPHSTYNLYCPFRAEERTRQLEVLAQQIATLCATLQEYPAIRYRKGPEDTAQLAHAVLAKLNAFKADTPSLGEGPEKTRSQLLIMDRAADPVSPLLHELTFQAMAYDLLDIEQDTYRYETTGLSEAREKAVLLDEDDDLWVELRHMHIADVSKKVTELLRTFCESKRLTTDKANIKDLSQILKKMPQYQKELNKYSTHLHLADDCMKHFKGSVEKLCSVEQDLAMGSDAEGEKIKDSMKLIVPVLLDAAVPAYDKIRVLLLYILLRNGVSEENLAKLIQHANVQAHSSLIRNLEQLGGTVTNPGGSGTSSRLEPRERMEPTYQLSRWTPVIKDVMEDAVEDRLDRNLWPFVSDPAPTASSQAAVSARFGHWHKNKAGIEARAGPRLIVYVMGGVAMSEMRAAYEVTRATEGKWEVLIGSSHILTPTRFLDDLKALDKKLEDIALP
UniProt Q02086: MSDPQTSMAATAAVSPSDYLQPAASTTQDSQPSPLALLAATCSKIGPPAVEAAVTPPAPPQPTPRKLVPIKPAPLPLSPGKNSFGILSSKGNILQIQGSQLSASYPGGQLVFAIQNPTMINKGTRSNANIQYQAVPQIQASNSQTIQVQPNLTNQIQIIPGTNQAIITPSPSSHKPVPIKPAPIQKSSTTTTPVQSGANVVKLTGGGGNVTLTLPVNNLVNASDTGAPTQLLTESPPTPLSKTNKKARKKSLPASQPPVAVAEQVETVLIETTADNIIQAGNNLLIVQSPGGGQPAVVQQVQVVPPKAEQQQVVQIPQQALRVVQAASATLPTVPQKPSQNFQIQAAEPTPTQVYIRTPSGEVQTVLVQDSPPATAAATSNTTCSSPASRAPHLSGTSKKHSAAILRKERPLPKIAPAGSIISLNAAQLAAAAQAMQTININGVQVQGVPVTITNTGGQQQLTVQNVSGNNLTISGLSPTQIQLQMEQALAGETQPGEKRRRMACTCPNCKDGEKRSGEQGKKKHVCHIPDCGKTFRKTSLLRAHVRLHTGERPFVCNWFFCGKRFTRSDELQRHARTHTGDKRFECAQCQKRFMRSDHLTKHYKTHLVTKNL
UniProt Q9ULZ2: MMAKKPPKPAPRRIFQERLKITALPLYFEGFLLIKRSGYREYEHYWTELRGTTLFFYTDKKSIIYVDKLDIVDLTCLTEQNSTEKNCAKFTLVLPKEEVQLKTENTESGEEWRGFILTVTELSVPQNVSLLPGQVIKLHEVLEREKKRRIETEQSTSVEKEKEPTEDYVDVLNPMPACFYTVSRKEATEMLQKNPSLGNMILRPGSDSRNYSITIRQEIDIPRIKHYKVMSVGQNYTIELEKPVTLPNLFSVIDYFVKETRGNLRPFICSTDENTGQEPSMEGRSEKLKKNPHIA
UniProt Q9UHB9: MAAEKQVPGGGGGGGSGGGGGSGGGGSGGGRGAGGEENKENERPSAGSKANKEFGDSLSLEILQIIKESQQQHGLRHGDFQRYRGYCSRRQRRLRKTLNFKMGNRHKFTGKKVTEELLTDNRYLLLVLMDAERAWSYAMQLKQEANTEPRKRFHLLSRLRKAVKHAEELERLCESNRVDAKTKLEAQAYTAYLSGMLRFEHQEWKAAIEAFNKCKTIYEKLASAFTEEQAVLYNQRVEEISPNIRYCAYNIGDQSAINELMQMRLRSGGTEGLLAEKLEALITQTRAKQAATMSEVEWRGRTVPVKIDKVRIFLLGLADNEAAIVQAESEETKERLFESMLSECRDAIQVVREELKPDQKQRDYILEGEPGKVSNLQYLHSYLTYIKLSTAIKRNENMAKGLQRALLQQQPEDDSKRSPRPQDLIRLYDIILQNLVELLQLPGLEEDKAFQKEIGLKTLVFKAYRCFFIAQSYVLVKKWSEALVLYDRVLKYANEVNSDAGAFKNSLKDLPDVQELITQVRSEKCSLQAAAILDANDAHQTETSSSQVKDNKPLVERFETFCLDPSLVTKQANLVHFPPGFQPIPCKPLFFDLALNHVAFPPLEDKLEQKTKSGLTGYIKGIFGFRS

Compound: COc1ccc(Cn2ccc3cc(C)c(C(=O)NO)cc32)cc1
Assay: dose-dependent thermal stabilisation call (2D-TPP, DLPTP, 10% FDR) (binary (1 = stabilised)); higher = stabilised by the compound
Conditions: system: HL-60 intact cells; concentration range 0.04-10 µM
Protocol: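 2D thermal proteome profiling in intact HL-60 cells treated with BRD-3811 (0, 0.04, 0.29, 2, 10 uM) for 90 min at 37 C, then heated 3 min at one of 12 temperatures (42-63.9 C). Soluble protein was quantified by TMT10 MS. The value is the DLPTP call of the paper: dose-dependent thermal stabilisation over all temperatures at 10% FDR (F-test of a dose-response against a flat model); one experiment, one call per tested protein.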

Target | dose-dependent thermal stabilisation call
SPPL2B (UniProt Q8TCT7) | inactive: 0
TEX264 (UniProt Q9Y6I9) | inactive: 0
TCF20 (UniProt Q9UGU0) | inactive: 0
SUMF2 (UniProt Q8NBJ7) | inactive: 0
STXBP5 (UniProt Q5T5C0) | inactive: 0
STEAP3 (UniProt Q658P3) | inactive: 0
SRBD1 (UniProt Q8N5C6) | inactive: 0
SPTBN1 (UniProt Q01082) | inactive: 0
SUPT6H (UniProt Q7KZ85) | inactive: 0
TBCC (UniProt Q15814) | inactive: 0
TACC3 (UniProt Q9Y6A5) | inactive: 0
TGS1 (UniProt Q96RS0) | inactive: 0
TBCA (UniProt O75347) | inactive: 0
SPEN (UniProt Q96T58) | inactive: 0
SUZ12 (UniProt Q15022) | inactive: 0
TDRKH (UniProt Q9Y2W6) | inactive: 0
STK11 (UniProt Q15831) | inactive: 0
SSR2 (UniProt P43308) | inactive: 0

Rewritten in markdown: entries from further up

| Target | dose-dependent thermal stabilisation call |
| --- | --- |
| TGS1 (UniProt Q96RS0) | inactive: 0 |
| TBCA (UniProt O75347) | inactive: 0 |
| SPEN (UniProt Q96T58) | inactive: 0 |
| SUZ12 (UniProt Q15022) | inactive: 0 |
| TDRKH (UniProt Q9Y2W6) | inactive: 0 |
| STK11 (UniProt Q15831) | inactive: 0 |
| SSR2 (UniProt P43308) | inactive: 0 |

Next part.

Target | dose-dependent thermal stabilisation call
TATDN2 (UniProt Q93075) | inactive: 0
SYNJ2 (UniProt O15056) | inactive: 0
TANK (UniProt Q92844) | inactive: 0
ST14 (UniProt Q9Y5Y6) | inactive: 0
SSSCA1 (UniProt O60232) | inactive: 0
TGDS (UniProt O95455) | inactive: 0
SYNGR2 (UniProt O43760) | inactive: 0
TAOK1 (UniProt Q7L7X3) | inactive: 0
STXBP2 (UniProt Q15833) | inactive: 0
SRP54 (UniProt P61011) | inactive: 0
SP2 (UniProt Q02086) | inactive: 0
SP110 (UniProt Q9HB58) | inactive: 0
SUB1 (UniProt P53999) | inactive: 0
TBC1D24 (UniProt Q9ULP9) | inactive: 0
STAP1 (UniProt Q9ULZ2) | inactive: 0
TFAM (UniProt Q00059) | inactive: 0
SRP68 (UniProt Q9UHB9) | inactive: 0
